Experimental data from patent US20250388543A1, “HETEROARYL COMPOUNDS FOR THE TREATMENT OF PAIN” (VERTEX PHARMACEUTICALS INCORPORATED, priority 2022, published 2025).
Some of these results come from one statement about several compounds together.

By UniProt entry, the sequences of proteins in these tests, tags left out. Residues count along the entry.
UniProt Q9Y5Y9, 126-1722 limits assumed: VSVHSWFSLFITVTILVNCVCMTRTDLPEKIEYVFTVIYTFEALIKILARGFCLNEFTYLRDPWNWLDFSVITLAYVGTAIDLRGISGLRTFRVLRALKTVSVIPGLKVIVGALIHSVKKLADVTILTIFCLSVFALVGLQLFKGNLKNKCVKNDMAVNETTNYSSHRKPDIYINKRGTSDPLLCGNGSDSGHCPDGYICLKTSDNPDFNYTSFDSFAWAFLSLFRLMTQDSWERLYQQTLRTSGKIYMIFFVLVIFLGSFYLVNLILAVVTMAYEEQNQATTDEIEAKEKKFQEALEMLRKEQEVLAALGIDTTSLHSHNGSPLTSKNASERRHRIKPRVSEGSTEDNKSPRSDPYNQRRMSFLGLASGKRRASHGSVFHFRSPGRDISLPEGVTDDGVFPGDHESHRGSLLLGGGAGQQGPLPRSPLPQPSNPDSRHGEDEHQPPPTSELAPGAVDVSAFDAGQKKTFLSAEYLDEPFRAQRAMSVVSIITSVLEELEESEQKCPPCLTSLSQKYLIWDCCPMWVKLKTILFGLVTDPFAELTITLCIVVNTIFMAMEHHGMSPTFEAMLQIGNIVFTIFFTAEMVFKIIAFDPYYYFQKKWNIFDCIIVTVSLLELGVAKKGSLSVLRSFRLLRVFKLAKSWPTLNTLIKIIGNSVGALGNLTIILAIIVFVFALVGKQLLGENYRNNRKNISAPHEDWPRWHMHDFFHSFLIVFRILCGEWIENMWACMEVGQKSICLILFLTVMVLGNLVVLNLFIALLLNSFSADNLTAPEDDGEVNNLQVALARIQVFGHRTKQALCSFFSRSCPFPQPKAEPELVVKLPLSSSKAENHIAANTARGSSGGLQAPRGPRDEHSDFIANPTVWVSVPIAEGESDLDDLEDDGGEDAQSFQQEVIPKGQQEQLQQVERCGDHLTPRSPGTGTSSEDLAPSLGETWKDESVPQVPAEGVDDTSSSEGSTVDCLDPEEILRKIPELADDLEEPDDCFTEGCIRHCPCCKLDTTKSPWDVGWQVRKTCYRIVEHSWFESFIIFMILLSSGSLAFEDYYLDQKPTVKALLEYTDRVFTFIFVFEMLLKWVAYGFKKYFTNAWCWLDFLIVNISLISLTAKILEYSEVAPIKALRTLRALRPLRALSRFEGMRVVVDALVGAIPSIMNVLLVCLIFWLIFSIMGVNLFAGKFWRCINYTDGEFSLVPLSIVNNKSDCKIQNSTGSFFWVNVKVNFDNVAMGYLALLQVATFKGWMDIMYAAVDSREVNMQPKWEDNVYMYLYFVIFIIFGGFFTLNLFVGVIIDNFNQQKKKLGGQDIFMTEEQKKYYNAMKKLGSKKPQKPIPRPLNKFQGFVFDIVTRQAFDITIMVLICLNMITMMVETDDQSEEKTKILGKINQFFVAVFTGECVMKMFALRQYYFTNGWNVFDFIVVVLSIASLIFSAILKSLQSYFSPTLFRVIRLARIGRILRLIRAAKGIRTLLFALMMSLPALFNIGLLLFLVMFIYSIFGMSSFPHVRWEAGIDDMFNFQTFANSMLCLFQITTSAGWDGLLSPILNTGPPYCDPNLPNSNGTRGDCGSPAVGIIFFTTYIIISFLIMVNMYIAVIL

Each molecule was assayed against human NaV 1.8 (Homo sapiens, UniProt Q9Y5Y9) (assay: E-VIPR Assay Detecting and Measuring NaV Inhibition Properties). Details: HEK cells expressing a truncated form of human NaV 1.8 with full channel activity; electrical stimulation, membrane-potential FRET dyes; 30 minutes compound incubation; read-out: measured IC50 value in the E-VIPR Assay.
Format: cell-based
From the text: E-VIPR Assay Detecting and Measuring NaV Inhibition Properties
Sodium ion channels are voltage-dependent proteins that can be activated by inducing membrane voltage changes by applying electric fields. The electrical stimulation instrument and methods of use, referred to as E-VIPR, are described in International Publication No. WO 2002/008748 A3 and C.-J. Huang et al. Characterization of voltage-gated sodium channel blockers by electrical stimulation and fluorescence detection of membrane potential, 24 Nature Biotech. 439-46 (2006), both of which are incorporated by reference in their entirety. The instrument comprises a microtiter plate handler, an optical system for exciting the coumarin dye while simultaneously recording the coumarin and oxonol emissions, a waveform generator, a current- or voltage-controlled amplifier, and parallel electrode pairs that are inserted into assay plate wells. Under integrated computer control, this instrument passes user-programmed electrical stimulus protocols to cells within the wells of the microtiter plate.
16-20 hours prior to running the assay on E-VIPR, HEK cells expressing a truncated form of human NaV 1.8 with full channel activity were seeded into microtiter 384-well plates, pre-coated with matrigel, at a density of 25,000 cells per well. 2.5-5% KIR2.1 BacMam virus was added to the final cell suspension before seeding into cell plates. HEK cells were grown in Dulbecco's Modified Eagle's Medium (DMEM) supplemented with 10% FBS (Fetal Bovine Serum, qualified; Sigma #F4135), 1% NEAA (Non-Essential Amino Acids, Gibco #11140), 1% HEPES (Gibco #15630), 1% Pen-Strep (Penicillin-Streptomycin; Gibco #15140) and 5 μg/ml Blasticidin (Gibco #R210-01). Cells were expanded in 5-layer CellSTACK culture chambers or cell culture flasks with vented caps, with 90-95% humidity and 5% CO2.
Reagents and Stock Solutions:
100 mg/mL Pluronic F-127 (Sigma #P2443), in dry DMSO
Compound Plates: Corning 384-well Polypropylene Round Bottom #3656
Cell Plates: 384-well tissue culture treated plates (Greiner #781091-2B)
2.5-5% KIR 2.1 Bacmam virus (produced in-house), prepared as described in Section 3.3 of J. A. Fornwald et al., Gene Expression in Mammalian Cells Using BacMam, a Modified Baculovirus System, 1350 Methods in Molecular Biology 95-116 (2016), the entire contents of which are incorporated by reference. The concentration used can be dependent on viral titer of each batch.
5 mM DiSBAC6(3), a voltage sensitive oxonol acceptor (CAS number 169211-44-3; 5-[3-(1,3-dihexylhexahydro-4,6-dioxo-2-thioxo-5-pyrimidinyl)-2-propen-1-ylidene]-1,3-dihexyldihydro-2-thioxo-4,6(1H,5H)-pyrimidinedione), in dry DMSO. The preparation of DiSBAC6(3) is analogous to that of DiSBAC4(3) as described in Voltage Sensing by Fluorescence Resonance Energy Transfer in Single Cells, Gonzalez, J. E. and Tsien, R. Y. (1995) Biophys. J. 69, 1272-1280.
5 mM CC2-DMPE, a commercially available membrane-bound coumarin phospholipid FRET donor (ThermoFisher Scientific catalog number K1017, CAS number 393782-57-5; tetradecanoic acid, 1,1′-[(1R)-1-[8-(6-chloro-7-hydroxy-2-oxo-2H-1-benzopyran-3-yl)-3-hydroxy-3-oxido-8-oxo-2,4-dioxa-7-aza-3-phosphaoct-1-yl]-1,2-ethanediyl]ester) was prepared in dry DMSO. See also, Improved indicators of cell membrane potential that use fluorescence resonance energy transfer, Gonzalez, J. E. and Tsien, R. Y. (1997) Chem. Biol. 4, 269-277.
Voltage Assay Background Suppression Compound (VABSC-1) is prepared in H2O (89-363 mM, range used to maintain solubility)
Human Serum (HS, Millipore #S1P1-01KL, or Sigma SLBR5469V and SLBR5470V as a 50%/50% mixture, for 25% assay final concentration)
Sodium Chloride 160 mM (9.35 g/L), Potassium Chloride, 4.5 mM (0.335 g/L), Glucose 10 mM (1.8 g/L), Magnesium Chloride (Anhydrous) 1 mM (0.095 g/L), Calcium Chloride 2 mM (0.222 g/L), HEPES 10 mM (2.38 g/L) in water. […]

IC50, < 500 nM:
Cc1[nH]c(-c2cnc(C3CC(F)(F)C3)cc2C2CCC(C(F)(F)F)CC2)cc(=O)c1S(C)(=N)=O (mixture of isomers) [Compound 9, 6-[6-(3,3-difluorocyclobutyl)-4-[4-(trifluoromethyl)cyclohexyl]-3-pyridyl]-2-methyl-3-(methylsulfonimidoyl)-1H-pyridin-4-one (cis isomer, mixture of epimers at sulfoximine)]
COc1c(Oc2cc(C(F)(F)F)c(F)cc2-c2cc(=O)c(S(C)(=N)=O)c(C)[nH]2)ccc(F)c1F (single isomer, unassigned) [Compound 21, 6-[2-(3,4-difluoro-2-methoxy-phenoxy)-5-fluoro-4-(trifluoromethyl)phenyl]-2-methyl-3-(methylsulfonimidoyl)-1H-pyridin-4-one]
Cc1[nH]c(-c2c(Oc3ccc(F)c(F)c3C)ncc(C(F)(F)F)c2C)cc(=O)c1C1COC(=O)N1 (single isomer, unassigned) [Compound 205]
Cc1[nH]c(-c2c(Oc3ccc(F)c(F)c3C)ncc(C(F)(F)F)c2C)cc(=O)c1C1CNC(=O)O1 (single isomer, unassigned) [Compound 207]
Cc1[nH]c(-c2cnc(C3CC(F)(F)C3)cc2C2CCC(C(F)(F)F)CC2)cc(=O)c1S(C)(=N)=O (single isomer, unassigned; diastereomer 2) [Compound 6, 6-[6-(3,3-difluorocyclobutyl)-4-14-(trifluoromethyl)cyclohexyl]-3-pyridyl]-2-methyl-3-(methylsulfonimidoyl)-1H-pyridin-4-one (cis isomer, diastereomer 2 at sulfoximine)]
COC(=O)c1c(C)[nH]c(-c2c(Oc3ccc(OC(F)(F)F)cc3OC)cnc(C(F)(F)F)c2C)cc1=O [Compound 1, methyl 6-[5-[2-methoxy-4-(trifluoromethoxy)phenoxy]-3-methyl-2-(trifluoromethyl)-4-pyridyl]-2-methyl-4-oxo-1H-pyridine-3-carboxylate]
CCOC(=O)c1c(C)[nH]c(-c2cnc(C3CC(F)(F)C3)cc2[C@H]2CC[C@@H](C(F)(F)F)CC2)c(C)c1=O [Compound 2, ethyl 6-[6-(3,3-difluorocyclobutyl)-4-[(1s,4s)-4-(trifluoromethyl)cyclohexyl]-3-pyridyl]-2,5-dimethyl-4-oxo-1H-pyridine-3-carboxylate]
COc1c(Oc2cnc(C(F)(F)F)c(C)c2-c2cc(=O)c(C(C)=O)c(C)[nH]2)ccc(F)c1F [Compound 3, 3-acetyl-6-[5-(3,4-difluoro-2-methoxy-phenoxy)-3-methyl-2-(trifluoromethyl)-4-pyridyl]-2-methyl-1H-pyridin-4-one]
CNC(=O)Cc1c(C)[nH]c(-c2cnc(C3CC(F)(F)C3)cc2C2CCC(C(F)(F)F)CC2)cc1=O (stereo not drawn) [Compound 4, 2-[6-[6-(3,3-difluorocyclobutyl)-4-[4-(trifluoromethyl)cyclohexyl]-3-pyridyl]-2-methyl-4-oxo-1H-pyridin-3-yl]-N-methyl-acetamide]
Cc1[nH]c(-c2cnc(C3CC(F)(F)C3)cc2C2CCC(C(F)(F)F)CC2)cc(=O)c1CC(N)=O (stereo not drawn) [Compound 5, 2-[6-[6-(3,3-difluorocyclobutyl)-4-[4-(trifluoromethyl)cyclohexyl]-3-pyridyl]-2-methyl-4-oxo-1H-pyridin-3-yl]acetamide]
COc1c(Oc2cnc(C(F)(F)F)c(C)c2-c2cc(=O)c(S(C)(=N)=O)c(C)[nH]2)ccc(F)c1F (stereo not drawn) [Compound 8, 6-[5-(3,4-difluoro-2-methoxy-phenoxy)-3-methyl-2-(trifluoromethyl)-4-pyridyl]-2-methyl-3-(methylsulfonimidoyl)-1H-pyridin-4-one]
CCOC(=O)c1c(C)[nH]c(-c2cnc(C3CC(F)(F)C3)cc2[C@H]2CC[C@@H](C(F)(F)F)CC2)cc1=O [Compound 10, ethyl 6-[6-(3,3-difluorocyclobutyl)-4-[(1s,4s)-4-(trifluoromethyl)cyclohexyl]-3-pyridyl]-2-methyl-4-oxo-1H-pyridine-3-carboxylate]
CCOC(=O)c1c(-c2cnc(C3CC(F)(F)C3)cc2[C@H]2CC[C@@H](C(F)(F)F)CC2)[nH]c(C)c(C)c1=O [Compound 11, ethyl 2-[6-(3,3-difluorocyclobutyl)-4-[(1s,4s)-4-(trifluoromethyl)cyclohexyl]-3-pyridyl]-5,6-dimethyl-4-oxo-1H-pyridine-3-carboxylate]
CCOC(=O)c1c(C)[nH]c(-c2c(Oc3ccc(F)c(F)c3OC)cnc(C(F)(F)F)c2C)cc1=O [Compound 12, ethyl 6-[5-(3,4-difluoro-2-methoxy-phenoxy)-3-methyl-2-(trifluoromethyl)-4-pyridyl]-2-methyl-4-oxo-1H-pyridine-3-carboxylate]
Cc1[nH]c(-c2c(Oc3ccc(F)c(F)c3C)ncc(C(F)(F)F)c2C)cc(=O)c1S(C)(=N)=O (stereo not drawn) [Compound 13, 6-[2-(3,4-difluoro-2-methyl-phenoxy)-4-methyl-5-(trifluoromethyl)-3-pyridyl]-2-methyl-3-(methylsulfonimidoyl)-1H-pyridin-4-one]
Cc1[nH]c(-c2cc(F)c(C(F)(F)F)cc2Oc2ccc(F)c(F)c2C)cc(=O)c1S(C)(=N)=O (stereo not drawn) [Compound 15, 6-[2-(3,4-difluoro-2-methyl-phenoxy)-5-fluoro-4-(trifluoromethyl)phenyl]-2-methyl-3-(methylsulfonimidoyl)-1H-pyridin-4-one]
CCOC(=O)c1c(-c2cc3ccccc3nc2Oc2ccc(F)c(F)c2C)[nH]c(C)c(C(OC)C(N)=O)c1=O (stereo not drawn) [Compound 16, ethyl 5-(2-amino-1-methoxy-2-oxo-ethyl)-2-[2-(3,4-difluoro-2-methyl-phenoxy)-3-quinolyl]-6-methyl-4-oxo-1H-pyridine-3-carboxylate]
CCOC(=O)c1c(-c2cc3ccccc3nc2N2CCCC(F)(F)CC2)[nH]c(C)c(C(OC)C(N)=O)c1=O (stereo not drawn) [Compound 17, ethyl 5-(2-amino-1-methoxy-2-oxo-ethyl)-2-[2-(4,4-difluoroazepan-1-yl)-3-quinolyl]-6-methyl-4-oxo-1H-pyridine-3-carboxylate]
COC(=O)c1c(-c2ccc(C(C)(C)C)cc2C2CCC(F)(F)CC2)[nH]c(C)c(OC)c1=O [Compound 18, methyl 2-[4-tert-butyl-2-(4,4-difluorocyclohexyl)phenyl]-5-methoxy-6-methyl-4-oxo-1H-pyridine-3-carboxylate]
CCOC(=O)c1c(-c2cc3ccccc3nc2Oc2ccc(F)c(F)c2C)[nH]c(C)c(C(C)C(N)=O)c1=O (stereo not drawn) [Compound 19, ethyl 5-(2-amino-1-methyl-2-oxo-ethyl)-2-[2-(3,4-difluoro-2-methyl-phenoxy)-3-quinolyl]-6-methyl-4-oxo-1H-pyridinc-3-carboxylatc]
CCOC(=O)c1c(-c2cc3ccccc3nc2N2CCCC(F)(F)CC2)[nH]c(C)c(C(C)C(N)=O)c1=O (stereo not drawn) [Compound 20, ethyl 5-(2-amino-1-methyl-2-oxo-ethyl)-2-[2-(4,4-difluoroazepan-1-yl)-3-quinolyl]-6-methyl-4-oxo-1H-pyridine-3-carboxylate]
